Positions count from the first letter of the chain named. No constants are given. Whether binding was seen depends on the method and setting. Each block holds one binder with its values, some of them ahead of it.
Biological target: BSA (Bos taurus) (UniProt P02769)
Assay: single-point protein ELISA, BSA control wells

Protein sequences, listed by entry. Tags and fused reporters are not part of them. Residues count along the entry.
UniProt P02769, residues 25-607: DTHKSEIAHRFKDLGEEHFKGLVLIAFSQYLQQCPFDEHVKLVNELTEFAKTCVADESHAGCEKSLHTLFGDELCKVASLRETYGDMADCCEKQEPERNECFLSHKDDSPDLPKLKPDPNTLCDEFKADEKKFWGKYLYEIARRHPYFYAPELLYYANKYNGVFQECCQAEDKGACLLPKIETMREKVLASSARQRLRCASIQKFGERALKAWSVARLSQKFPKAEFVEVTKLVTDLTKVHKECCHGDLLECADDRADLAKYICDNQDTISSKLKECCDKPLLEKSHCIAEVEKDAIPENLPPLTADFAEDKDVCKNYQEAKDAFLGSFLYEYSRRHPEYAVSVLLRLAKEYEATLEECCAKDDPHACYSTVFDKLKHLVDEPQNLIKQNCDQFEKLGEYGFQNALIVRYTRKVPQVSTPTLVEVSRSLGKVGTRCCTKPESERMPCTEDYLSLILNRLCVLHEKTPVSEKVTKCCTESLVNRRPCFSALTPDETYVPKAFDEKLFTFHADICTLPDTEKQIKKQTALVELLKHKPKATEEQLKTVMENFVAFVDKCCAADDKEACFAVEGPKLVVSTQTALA

- binding: no binding (tested: 200 nM)
B2: INC-N-19 (Fab, V domains shown)
VH: EVQLVESGGGLVQPGGSLRLSCAASGFNVYYSYIHWVRQAPGKGLEWVASIYPYSGYTSYADSVKGRFTISADTSKNTAYLQMNSLRAEDTAVYYCARWRWPGLQFGYGMDYWGQGTLVTVSS
VL: DIQMTQSPSSLSASVGDRVTITCRASQSVSSAVAWYQQKPGKAPKLLIYSASSLYSGVPSRFSGSRSGTDFTLTISSLQPEDFATYYCQQSYWWPLTFGQGTKVEIKR
notes: also called INC-N-19 Fab

- binding: no binding (tested: 200 nM)
B3: INC-N-14 (Fab, V domains shown)
VH: EVQLVESGGGLVQPGGSLRLSCAASGFNVSSYSIHWVRQAPGKGLEWVASIYPSSGSTYYADSVKGRFTISADTSKNTAYLQMNSLRAEDTAVYYCARKGYGWFYYYIEWYSPYAFDYWGQGTLVTVSS
VL: B2 VL with W93Y, W94Y, L96V
notes: light chain shared with INC-N-18; also called INC-N-14 Fab

- binding: no binding (tested: 200 nM)
B4: INC-N-12 (Fab, V domains shown)
VH: EVQLVESGGGLVQPGGSLRLSCAASGFNFSSSSIHWVRQAPGKGLEWVASIYSYSGSTYYADSVKGRFTISADTSKNTAYLQMNSLRAEDTAVYYCARYHWYYYWYWGGVSPAMDYWGQGTLVTVSS
VL: B2 VL with S91M, Y92R, W93Y, W94Y, L96I
notes: also called INC-N-12 Fab

- binding: no binding (tested: 200 nM)
B6: INC-N-08 (Fab, V domains shown)
VH: EVQLVESGGGLVQPGGSLRLSCAASGFNFSSSSIHWVRQAPGKGLEWVASIYSYYGSTSYADSVKGRFTISADTSKNTAYLQMNSLRAEDTAVYYCARWMYKGYIFYQYFGLDYWGQGTLVTVSS
VL: B2 VL with Y92F, W93S, W94N, P95L, L96I
notes: also called INC-N-08 Fab

Continued, binder first:

B1: INC-N-34 (Fab, V domains shown)
VH: EVQLVESGGGLVQPGGSLRLSCAASGFNVSSSSIHWVRQAPGKGLEWVASIYPSSGYTSYADSVKGRFTISADTSKNTAYLQMNSLRAEDTAVYYCARKLAYYWGAQWSYSGYKGMDYWGQGTLVTVSS
VL: B2 VL with W94Y, L96I
notes: also called INC-N-34 Fab
- binding: no binding (tested: 200 nM)

B5: INC-N-06 (Fab, V domains shown)
VH: EVQLVESGGGLVQPGGSLRLSCAASGFNISYSSIHWVRQAPGKGLEWVASIYPYSGSTYYADSVKGRFTISADTSKNTAYLQMNSLRAEDTAVYYCARWSLYGKWYYWWYGLDYWGQGTLVTVSS
VL: B2 VL with S91G, Y92S, W93Y, W94Y, L96I
notes: also called INC-N-06 Fab
- binding: no binding (tested: 200 nM)

B7: INC-N-38 (Fab, V domains shown)
VH: EVQLVESGGGLVQPGGSLRLSCAASGFNVYSSSIHWVRQAPGKGLEWVAYISSYSGYTYYADSVKGRFTISADTSKNTAYLQMNSLRAEDTAVYYCARTIYSSSYFYTWFIYGAAFDYWGQGTLVTVSS
VL: B2 VL with Y92W, W93M, W94Y, L96I
notes: also called INC-N-38 Fab
- binding: no binding (tested: 200 nM)
